Source: publication PMC8523518
No constants are given. Whether binding was seen depends on the method and setting. Binding seen in cells or lysates may run through a third protein. Some binding calls cover weakened binding; strength is not graded here. For some of these results: Tags and fused reporters may be left off the sequences shown.

By UniProt entry, the sequences of proteins in these tests, tags left out.
UniProt P05198: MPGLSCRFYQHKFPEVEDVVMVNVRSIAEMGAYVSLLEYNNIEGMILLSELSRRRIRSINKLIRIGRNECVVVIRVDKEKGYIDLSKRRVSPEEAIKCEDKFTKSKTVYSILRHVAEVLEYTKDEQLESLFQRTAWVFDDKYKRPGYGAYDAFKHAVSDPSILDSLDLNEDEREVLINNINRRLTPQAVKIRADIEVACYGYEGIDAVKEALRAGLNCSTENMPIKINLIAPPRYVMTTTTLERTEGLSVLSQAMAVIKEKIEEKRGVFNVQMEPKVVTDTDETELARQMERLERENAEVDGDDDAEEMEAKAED

What was measured:
HA-PHLPP2 = target: T1, HA-PHLPP2 (UniProt Q6ZVD8); test: co-IP; lysates of stable SW480 cells expressing HA-PHLPP1 or HA-PHLPP2, treated with DMSO or tunicamycin for 3 h; immunoprecipitated with anti-HA antibody and protein A/G agarose at 4 °C overnight; eIF2α detected by Western blot
T1 sequence: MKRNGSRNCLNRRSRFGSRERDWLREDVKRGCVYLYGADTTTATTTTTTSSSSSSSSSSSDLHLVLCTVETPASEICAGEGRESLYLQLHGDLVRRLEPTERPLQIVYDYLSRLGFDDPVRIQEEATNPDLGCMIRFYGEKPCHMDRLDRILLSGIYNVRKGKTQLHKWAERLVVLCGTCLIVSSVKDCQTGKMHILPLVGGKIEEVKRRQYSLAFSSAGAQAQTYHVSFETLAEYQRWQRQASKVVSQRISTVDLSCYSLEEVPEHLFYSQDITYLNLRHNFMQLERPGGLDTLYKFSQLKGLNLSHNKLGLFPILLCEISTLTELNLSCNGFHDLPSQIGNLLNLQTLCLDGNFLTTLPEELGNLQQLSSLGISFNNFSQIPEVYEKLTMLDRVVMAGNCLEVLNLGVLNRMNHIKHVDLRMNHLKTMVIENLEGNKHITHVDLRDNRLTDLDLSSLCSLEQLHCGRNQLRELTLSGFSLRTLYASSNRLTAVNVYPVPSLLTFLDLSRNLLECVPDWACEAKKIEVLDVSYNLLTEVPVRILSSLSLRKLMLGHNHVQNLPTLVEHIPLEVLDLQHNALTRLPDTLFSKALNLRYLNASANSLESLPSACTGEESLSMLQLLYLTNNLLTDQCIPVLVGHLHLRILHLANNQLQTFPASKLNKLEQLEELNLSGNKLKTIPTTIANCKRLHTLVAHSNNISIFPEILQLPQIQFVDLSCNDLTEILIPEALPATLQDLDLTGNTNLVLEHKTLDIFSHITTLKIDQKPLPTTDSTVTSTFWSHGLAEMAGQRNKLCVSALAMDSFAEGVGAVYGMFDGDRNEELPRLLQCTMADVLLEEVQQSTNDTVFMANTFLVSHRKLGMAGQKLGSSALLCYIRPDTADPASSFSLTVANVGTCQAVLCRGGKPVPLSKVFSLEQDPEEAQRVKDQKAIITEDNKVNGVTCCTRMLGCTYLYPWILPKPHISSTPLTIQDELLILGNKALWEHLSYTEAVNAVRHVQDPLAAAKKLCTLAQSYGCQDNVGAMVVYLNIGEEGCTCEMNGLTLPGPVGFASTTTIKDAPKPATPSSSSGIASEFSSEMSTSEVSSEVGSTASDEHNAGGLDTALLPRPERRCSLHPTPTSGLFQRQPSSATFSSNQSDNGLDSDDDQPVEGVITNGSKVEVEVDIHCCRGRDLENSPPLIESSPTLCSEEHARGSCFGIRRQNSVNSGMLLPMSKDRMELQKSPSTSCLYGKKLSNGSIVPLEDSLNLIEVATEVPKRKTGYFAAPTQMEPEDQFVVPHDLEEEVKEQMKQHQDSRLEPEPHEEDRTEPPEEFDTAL

[1] = target: T2, HA-PHLPP1 (a N-terminal truncated form of PHLPP1 originally termed PHLPP1α) (UniProt O60346); test: as above
T2 sequence: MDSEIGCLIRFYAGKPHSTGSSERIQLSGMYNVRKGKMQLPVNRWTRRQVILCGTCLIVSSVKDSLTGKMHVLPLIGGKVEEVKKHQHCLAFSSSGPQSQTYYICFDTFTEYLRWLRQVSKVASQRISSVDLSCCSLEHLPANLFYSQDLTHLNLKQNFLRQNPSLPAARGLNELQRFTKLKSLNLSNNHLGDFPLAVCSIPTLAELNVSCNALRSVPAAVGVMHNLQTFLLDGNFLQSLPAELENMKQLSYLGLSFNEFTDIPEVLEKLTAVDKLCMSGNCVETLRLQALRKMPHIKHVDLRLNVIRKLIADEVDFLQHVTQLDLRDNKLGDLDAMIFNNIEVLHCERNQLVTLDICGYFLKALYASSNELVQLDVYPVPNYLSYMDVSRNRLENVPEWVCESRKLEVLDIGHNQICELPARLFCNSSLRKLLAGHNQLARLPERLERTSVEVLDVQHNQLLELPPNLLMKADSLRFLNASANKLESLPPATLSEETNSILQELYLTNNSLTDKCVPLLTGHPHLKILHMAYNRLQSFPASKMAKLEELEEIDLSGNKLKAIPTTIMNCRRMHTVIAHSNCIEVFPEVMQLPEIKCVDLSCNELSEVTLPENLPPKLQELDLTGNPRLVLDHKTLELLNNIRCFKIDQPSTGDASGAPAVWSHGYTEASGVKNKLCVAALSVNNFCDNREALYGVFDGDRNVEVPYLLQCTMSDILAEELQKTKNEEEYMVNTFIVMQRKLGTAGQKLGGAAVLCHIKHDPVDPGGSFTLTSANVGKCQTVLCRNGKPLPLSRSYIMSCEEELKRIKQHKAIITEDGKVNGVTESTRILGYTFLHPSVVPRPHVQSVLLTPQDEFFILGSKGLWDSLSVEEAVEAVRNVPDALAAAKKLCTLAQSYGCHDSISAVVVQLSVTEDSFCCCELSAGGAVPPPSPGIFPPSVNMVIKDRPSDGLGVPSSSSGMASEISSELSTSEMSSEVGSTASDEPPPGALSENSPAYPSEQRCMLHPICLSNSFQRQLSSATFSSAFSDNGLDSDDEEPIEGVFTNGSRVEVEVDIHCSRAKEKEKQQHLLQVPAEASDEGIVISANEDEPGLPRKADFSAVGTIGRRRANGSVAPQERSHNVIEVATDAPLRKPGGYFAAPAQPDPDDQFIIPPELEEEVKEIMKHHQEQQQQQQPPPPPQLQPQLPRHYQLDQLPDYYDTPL

[2] = target: endogenous PHLPP1 (containing the N-terminal extension) (human (endogenous in SW480)) (UniProt O60346); test: co-IP; endogenous proteins; lysates of SW480 cells treated with DMSO or tunicamycin for 3 h; immunoprecipitated with anti-PHLPP1 or anti-PHLPP2 antibodies and protein A/G agarose at 4 °C overnight; eIF2α detected by Western blot
[3] = target: T3, endogenous PHLPP2 (human (endogenous in SW480)) (UniProt Q6ZVD8); test: as above
T3 sequence: T1 sequence

Measured: binding

eIF2α (from UniProt P05198 1-315)
binds: all assays above
